Data: ChEMBL document CHEMBL3862026, “Synthesis and biological evaluation of ranitidine analogs as multiple-target-directed cognitive enhancers for the treatment of Alzheimer's disease” (Bioorg Med Chem Lett, 2016)

Amino acid sequences for entries named in this document (tags omitted).
UniProt P81908, whole entry: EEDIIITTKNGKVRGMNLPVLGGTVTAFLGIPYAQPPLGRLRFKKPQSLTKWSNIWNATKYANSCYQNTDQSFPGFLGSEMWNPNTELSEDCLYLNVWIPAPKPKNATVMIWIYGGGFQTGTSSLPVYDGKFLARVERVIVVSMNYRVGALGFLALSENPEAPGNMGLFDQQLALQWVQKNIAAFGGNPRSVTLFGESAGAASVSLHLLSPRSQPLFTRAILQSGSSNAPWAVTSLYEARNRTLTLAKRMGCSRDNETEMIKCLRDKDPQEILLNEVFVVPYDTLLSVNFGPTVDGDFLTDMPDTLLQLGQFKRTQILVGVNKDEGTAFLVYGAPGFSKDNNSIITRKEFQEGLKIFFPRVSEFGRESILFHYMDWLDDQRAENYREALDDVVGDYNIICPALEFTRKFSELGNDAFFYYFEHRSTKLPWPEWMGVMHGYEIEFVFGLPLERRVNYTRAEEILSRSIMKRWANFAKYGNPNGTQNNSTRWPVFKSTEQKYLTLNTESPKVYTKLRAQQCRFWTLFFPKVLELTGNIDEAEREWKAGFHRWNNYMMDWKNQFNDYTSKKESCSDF

Target: Cholinesterase (Equus caballus, UniProt P81908)
Assay: Inhibition of equine serum BuChE using butyrylthiocholine as substrate preincubated for 8 mins followed by substrate addition by Ellman's method

Compound: CN(C)Cc1ccc(CSCCN2C(=O)c3cccc([N+](=O)[O-])c3C2=O)o1
- IC50: > 50 µM
